1 molecule from patent US20230302150A1, “ANTIBODY-TLR AGONIST CONJUGATES, METHODS AND USES THEREOF” (Ambrx, Inc., priority 2020, published 2023) can be followed below.

Protein sequences, listed by entry. Tags and fused reporters are not part of them. Residues count along the entry.
UniProt Q9NYK1, 27-1049 limits assumed: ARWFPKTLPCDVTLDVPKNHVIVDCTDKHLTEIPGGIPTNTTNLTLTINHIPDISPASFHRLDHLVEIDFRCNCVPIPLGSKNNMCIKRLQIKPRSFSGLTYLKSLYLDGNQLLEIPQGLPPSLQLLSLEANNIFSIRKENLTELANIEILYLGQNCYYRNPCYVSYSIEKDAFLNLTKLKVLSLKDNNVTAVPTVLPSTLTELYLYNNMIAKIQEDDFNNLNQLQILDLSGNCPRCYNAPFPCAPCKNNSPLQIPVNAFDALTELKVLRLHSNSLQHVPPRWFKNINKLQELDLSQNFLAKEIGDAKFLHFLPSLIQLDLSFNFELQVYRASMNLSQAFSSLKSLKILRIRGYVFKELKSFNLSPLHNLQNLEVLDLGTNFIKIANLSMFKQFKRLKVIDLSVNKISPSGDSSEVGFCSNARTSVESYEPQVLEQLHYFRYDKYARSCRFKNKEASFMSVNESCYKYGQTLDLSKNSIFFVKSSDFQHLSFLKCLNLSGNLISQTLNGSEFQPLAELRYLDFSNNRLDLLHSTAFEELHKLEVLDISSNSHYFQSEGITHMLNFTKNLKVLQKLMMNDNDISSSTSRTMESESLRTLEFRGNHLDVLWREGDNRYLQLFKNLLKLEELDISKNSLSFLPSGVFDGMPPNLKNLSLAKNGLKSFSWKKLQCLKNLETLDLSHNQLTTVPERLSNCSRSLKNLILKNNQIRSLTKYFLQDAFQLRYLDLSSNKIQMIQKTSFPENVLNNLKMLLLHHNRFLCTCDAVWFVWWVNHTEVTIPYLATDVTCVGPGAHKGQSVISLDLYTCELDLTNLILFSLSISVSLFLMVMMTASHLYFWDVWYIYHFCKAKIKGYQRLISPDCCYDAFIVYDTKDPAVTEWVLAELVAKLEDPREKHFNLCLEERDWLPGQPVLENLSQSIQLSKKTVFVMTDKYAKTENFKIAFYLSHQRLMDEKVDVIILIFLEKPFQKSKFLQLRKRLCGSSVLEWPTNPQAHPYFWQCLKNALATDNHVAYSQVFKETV

The experiment has as its target hTLR7 (Homo sapiens, UniProt Q9NYK1). Put plainly: HEK-Blue hTLR7 reporter assay (NF-kB-induced SEAP, Quanti-Blue). Format: cell-based. Particulars: HEK-Blue hTLR7 reporter cell line; data not shown. (Reporter assays use an easily measured gene product as a stand-in for the process of interest.)

Structures were worked out from names or drawings and are uncertain.

For orientation: EC50 means the concentration at which the effect is half-maximal. A high value points to weaker potency. `CCCCc1nc2cnc3ccccc3c2n1CCOCCNC(=O)OC(C)(C)C` displayed an EC50 of 435 nM.
